The text below walks through data of paper PMC11658694, “Acetylation of the yeast Hsp40 chaperone protein Ydj1 fine-tunes proteostasis and translational fidelity” (PLOS Genetics, 2024).

Sequences of proteins named here, by UniProt entry; tags and fusion partners are left off. A change or cut given only in a name is not applied to a line headed by its entry. A line that says so, or that is headed by a name, gives the form on record, which may keep a tag or linker.
UniProt P25491: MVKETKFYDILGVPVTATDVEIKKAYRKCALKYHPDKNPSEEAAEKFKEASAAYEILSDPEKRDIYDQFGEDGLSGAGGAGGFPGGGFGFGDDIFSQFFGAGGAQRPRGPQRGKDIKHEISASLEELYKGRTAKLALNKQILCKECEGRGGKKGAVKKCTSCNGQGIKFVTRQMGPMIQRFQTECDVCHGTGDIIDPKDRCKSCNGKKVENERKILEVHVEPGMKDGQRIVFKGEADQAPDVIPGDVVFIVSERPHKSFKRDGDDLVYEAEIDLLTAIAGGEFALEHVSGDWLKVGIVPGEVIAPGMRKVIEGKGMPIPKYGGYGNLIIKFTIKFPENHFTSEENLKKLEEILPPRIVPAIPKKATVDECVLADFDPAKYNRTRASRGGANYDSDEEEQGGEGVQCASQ
Ydj1-FLAG 6KR (S. cerevisiae (budding yeast)) (P25491, form named): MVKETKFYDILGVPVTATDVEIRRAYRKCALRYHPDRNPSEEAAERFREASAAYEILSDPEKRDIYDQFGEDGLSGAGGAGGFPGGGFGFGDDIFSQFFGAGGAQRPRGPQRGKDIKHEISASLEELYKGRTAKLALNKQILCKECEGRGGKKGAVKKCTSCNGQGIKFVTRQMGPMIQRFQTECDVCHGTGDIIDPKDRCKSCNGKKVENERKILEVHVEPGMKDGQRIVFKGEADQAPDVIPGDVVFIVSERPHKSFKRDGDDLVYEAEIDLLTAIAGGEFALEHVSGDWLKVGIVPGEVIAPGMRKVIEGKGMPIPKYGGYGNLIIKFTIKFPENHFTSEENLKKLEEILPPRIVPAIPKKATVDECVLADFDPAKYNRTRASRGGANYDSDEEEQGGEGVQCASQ
UniProt P10591: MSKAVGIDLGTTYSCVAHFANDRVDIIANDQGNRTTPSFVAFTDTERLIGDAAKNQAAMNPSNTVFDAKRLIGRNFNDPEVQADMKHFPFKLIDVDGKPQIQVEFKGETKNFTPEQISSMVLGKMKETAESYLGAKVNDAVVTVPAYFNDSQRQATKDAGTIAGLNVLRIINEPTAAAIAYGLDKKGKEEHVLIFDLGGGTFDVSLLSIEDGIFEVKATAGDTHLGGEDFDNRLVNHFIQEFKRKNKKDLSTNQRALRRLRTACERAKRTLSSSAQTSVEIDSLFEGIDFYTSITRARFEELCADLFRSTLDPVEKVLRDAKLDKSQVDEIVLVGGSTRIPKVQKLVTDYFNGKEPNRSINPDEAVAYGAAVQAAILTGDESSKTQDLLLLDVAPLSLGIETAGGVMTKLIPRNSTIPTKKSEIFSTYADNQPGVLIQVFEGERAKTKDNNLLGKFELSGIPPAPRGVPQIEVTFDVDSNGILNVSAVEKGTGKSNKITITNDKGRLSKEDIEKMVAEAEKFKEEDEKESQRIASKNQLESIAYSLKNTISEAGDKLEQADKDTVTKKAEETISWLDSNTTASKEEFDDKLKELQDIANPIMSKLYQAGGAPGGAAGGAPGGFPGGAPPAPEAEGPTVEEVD

No constants are given. Whether binding was seen depends on the method and setting. Binding seen in cells or lysates may run through a third protein. Some binding calls cover weakened binding; strength is not graded here.

The target in test [1] is Ydj1-FLAG wild-type (S. cerevisiae (budding yeast)) (UniProt P25491). The test can be described thus: co-IP; Ydj1-FLAG held on anti-FLAG M2 magnetic beads from yeast extract; 50 mM Na-phosphate pH 8.0, 300 mM NaCl, 0.01% Tween-20, 4°C overnight; eluted with 3X FLAG peptide; blots with antisera to Ssa1, FLAG or the Glu tag.
Test [2] addresses Ydj1-FLAG 6KR (S. cerevisiae (budding yeast)) (UniProt P25491). The description is as above.

Consider “Ssa1 (endogenous, yeast) (from UniProt P10591 1-642)”, for which the binding result in test [1] and in test [2] was “binds” throughout.
